The target of the assay is Flag-wtFANCD2 (UniProt Q9BXW9). In words: affinity purification with mass spectrometry; Flag-IP eluates from HEK293T cells transfected with Flag vector, Flag-wtFANCD2 or Flag-mtFANCD2, resolved on an 8-16% gradient gel; the extra band cut out for MS/MS.

Chains of the proteins cited; added tags and fusions are not shown. Residues count along the entry.
UniProt Q9BXW9: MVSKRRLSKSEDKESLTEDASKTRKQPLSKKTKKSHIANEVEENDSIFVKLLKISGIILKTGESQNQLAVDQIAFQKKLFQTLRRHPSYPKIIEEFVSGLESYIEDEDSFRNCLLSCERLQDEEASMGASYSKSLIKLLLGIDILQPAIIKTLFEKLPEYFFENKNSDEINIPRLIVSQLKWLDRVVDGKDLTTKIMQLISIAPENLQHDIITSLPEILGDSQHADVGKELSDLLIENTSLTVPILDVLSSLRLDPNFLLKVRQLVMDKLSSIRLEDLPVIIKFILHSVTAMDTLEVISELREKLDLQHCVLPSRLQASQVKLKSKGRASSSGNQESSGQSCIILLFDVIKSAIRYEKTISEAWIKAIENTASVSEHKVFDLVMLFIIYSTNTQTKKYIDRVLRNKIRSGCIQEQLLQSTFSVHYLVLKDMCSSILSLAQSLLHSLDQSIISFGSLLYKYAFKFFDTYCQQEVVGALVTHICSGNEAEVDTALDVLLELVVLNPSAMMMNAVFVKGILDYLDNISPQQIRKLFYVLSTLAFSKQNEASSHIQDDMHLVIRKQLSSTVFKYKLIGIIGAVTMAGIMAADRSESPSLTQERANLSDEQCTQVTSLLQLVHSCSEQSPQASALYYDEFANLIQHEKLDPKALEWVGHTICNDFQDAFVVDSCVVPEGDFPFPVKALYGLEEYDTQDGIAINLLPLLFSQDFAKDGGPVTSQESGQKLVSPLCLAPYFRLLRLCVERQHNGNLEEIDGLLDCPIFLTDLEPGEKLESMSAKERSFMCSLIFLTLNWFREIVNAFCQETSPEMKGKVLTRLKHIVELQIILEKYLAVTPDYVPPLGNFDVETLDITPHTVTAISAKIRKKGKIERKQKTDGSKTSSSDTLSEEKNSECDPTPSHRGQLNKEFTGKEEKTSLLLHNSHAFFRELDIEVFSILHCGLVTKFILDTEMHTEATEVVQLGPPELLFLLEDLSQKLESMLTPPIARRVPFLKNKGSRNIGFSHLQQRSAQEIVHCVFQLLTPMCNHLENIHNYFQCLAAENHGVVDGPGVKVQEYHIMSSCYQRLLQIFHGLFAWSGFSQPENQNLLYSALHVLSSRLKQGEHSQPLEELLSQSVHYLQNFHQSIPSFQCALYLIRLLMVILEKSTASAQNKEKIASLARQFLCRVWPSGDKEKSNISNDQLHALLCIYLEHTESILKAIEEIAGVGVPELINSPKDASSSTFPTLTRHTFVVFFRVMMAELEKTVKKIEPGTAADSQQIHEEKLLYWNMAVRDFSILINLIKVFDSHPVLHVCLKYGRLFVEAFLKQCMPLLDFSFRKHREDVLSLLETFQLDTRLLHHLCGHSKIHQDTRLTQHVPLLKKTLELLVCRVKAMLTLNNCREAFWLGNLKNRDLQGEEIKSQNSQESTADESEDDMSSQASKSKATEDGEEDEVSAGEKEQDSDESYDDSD
UniProt P25705, residues 44-553: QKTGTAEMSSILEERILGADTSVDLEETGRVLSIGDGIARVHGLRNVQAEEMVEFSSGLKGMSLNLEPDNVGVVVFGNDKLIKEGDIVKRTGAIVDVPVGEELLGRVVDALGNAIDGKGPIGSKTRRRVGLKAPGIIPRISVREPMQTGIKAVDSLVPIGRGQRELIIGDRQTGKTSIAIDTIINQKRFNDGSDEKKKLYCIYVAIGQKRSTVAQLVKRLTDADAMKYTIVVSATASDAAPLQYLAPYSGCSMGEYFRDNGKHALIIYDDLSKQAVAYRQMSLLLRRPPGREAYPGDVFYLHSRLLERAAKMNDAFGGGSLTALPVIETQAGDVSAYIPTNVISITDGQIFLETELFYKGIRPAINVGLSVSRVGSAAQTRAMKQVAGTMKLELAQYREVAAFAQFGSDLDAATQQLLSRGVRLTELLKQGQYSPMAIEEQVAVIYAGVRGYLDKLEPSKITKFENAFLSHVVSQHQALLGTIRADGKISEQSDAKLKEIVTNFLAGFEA

These are yes or no findings as the source states them, for the method shown. Binding seen in cells or lysates may run through a third protein. A yes stands for co-enrichment or nearness to the bait. Other partners may have been found.

Turning to “ATP5α (endogenous, 293T cells) (from UniProt P25705 44-553)”, the binding entry was “binds”.
